This data set concerns the target PdhR (his-tagged) (Escherichia coli) (UniProt P0ACL9). Briefly: EMSA. The following applies: 0.1 pmol DNA, 54 pmol PdhR, very weak, small amount shifted; 0.1 pmol of each DNA fragment with 54 pmol PdhR; pH and temperature not given; recombinant protein; protein details: His; label: 5'DY682 (strand 1), 5'DY782 (strand 2). A general note: Mobility shift assays separate free from complexed probe on a gel.

Protein sequences, listed by entry. Tags and fused reporters are not part of them. Lines headed by an entry give the natural chain unless they say otherwise; changes in a name come on top.
UniProt P0ACL9: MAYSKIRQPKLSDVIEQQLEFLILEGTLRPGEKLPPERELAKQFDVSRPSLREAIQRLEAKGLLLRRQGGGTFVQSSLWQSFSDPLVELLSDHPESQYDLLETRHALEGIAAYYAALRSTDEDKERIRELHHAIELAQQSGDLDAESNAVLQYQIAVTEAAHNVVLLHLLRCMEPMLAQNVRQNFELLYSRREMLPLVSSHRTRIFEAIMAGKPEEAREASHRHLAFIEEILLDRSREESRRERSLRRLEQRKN

Construct, isoform or probe ends are uncertain for at least one entry. A weaker result is weaker than the reference pair of the same experiment.

For the sequence “TCGGTATGCCTTGTGACTGGCTTGACAAGCTTTTCCTCAGCTCC (double strand) [MraZop]”, the binding result was “binds more weakly”.

These data come from publication PMC3265435.
